The other results are listed elsewhere or left out.
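Further: competitive profiling in live THP-1 cells: cysteine peptides tagged with an iodoacetamide desthiobiotin (IA-DTB) probe, intensity after compound treatment relative to DMSO-treated cells.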

Protein sequences, listed by entry. Tags and fused reporters are not part of them. Lines headed by an entry give the natural chain unless they say otherwise; changes in a name come on top.
UniProt P30414: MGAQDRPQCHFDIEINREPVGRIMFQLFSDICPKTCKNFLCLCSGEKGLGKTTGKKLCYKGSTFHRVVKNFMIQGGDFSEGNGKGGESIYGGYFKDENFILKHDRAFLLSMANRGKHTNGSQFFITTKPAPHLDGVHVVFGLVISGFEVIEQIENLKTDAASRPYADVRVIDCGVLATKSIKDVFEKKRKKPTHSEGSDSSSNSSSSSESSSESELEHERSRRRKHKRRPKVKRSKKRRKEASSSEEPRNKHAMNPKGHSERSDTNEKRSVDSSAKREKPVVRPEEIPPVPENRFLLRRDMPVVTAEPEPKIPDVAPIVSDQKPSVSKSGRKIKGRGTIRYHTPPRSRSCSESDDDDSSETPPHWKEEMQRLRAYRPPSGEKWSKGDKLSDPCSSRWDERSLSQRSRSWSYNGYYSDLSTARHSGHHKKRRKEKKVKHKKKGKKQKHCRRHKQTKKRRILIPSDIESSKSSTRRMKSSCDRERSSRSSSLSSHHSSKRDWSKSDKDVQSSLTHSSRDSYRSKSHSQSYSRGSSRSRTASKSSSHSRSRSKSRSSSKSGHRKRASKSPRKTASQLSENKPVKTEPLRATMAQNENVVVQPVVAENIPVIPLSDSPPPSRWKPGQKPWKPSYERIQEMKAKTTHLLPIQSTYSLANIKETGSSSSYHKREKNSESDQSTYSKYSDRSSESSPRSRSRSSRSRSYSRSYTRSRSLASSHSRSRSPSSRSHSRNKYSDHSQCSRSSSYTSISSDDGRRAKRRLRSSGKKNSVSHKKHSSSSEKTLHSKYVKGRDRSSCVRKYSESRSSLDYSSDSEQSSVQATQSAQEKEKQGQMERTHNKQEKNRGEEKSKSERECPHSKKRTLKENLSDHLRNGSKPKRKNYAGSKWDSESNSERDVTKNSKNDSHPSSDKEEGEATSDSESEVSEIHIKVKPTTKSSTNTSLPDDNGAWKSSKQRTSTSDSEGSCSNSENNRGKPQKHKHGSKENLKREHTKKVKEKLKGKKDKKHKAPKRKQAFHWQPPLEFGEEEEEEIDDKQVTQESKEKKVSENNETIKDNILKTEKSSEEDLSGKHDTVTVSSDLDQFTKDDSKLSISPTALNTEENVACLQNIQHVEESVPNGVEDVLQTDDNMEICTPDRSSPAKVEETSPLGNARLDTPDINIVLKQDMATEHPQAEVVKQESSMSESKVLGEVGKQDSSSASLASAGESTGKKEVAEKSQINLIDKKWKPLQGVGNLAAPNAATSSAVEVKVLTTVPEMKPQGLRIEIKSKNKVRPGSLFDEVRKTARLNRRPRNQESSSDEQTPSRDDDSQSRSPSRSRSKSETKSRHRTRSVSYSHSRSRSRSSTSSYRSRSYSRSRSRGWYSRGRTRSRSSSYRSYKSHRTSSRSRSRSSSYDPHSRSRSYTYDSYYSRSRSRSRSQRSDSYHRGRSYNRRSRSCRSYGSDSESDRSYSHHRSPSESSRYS
UniProt Q9HC98: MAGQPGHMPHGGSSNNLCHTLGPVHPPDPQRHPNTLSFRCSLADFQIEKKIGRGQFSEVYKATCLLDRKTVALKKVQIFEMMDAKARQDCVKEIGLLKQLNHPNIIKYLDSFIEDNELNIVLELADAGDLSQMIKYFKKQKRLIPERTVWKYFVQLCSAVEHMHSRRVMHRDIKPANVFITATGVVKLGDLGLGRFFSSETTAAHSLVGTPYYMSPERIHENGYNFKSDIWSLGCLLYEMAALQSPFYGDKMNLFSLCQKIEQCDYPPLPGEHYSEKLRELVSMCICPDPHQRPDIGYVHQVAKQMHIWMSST
UniProt Q9Y2I1: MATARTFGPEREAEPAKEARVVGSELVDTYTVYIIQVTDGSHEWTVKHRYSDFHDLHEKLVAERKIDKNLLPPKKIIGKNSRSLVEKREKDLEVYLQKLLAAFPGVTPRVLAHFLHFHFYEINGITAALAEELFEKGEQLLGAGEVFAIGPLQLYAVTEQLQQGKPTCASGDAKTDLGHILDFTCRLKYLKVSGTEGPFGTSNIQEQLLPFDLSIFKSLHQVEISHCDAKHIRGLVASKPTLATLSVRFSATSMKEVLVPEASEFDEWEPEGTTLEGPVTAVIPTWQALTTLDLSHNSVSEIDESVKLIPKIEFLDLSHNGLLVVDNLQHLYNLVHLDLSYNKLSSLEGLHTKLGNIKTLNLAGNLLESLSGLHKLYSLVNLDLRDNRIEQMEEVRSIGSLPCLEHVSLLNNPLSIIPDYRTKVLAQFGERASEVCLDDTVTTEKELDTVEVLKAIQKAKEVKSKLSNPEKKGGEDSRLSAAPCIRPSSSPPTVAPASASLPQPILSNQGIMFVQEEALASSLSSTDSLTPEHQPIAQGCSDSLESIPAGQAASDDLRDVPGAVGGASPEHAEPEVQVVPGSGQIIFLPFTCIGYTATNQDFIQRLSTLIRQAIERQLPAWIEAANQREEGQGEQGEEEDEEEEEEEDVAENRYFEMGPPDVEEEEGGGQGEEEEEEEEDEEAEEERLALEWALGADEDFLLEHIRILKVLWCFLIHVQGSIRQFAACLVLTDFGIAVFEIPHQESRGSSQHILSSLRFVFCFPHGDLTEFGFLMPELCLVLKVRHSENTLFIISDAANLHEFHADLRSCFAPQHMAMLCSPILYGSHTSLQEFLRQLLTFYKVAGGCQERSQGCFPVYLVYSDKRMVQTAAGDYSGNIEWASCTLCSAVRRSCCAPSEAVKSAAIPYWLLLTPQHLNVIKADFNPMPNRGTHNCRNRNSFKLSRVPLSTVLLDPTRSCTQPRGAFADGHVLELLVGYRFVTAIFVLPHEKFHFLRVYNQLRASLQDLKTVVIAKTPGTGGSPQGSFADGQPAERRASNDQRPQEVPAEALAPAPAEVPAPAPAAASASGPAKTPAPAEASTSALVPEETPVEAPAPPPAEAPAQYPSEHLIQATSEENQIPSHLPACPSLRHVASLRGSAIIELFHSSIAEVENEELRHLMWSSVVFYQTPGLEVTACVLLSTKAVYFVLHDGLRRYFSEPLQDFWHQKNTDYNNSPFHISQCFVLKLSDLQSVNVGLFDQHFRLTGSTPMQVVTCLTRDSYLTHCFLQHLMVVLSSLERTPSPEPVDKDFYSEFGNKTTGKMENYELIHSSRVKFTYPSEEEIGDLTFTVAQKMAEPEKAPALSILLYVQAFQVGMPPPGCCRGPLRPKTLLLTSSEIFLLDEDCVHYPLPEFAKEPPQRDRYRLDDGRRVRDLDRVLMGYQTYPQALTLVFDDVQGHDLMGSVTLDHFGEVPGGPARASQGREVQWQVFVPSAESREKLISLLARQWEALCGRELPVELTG
UniProt O75380, whole entry, looked up: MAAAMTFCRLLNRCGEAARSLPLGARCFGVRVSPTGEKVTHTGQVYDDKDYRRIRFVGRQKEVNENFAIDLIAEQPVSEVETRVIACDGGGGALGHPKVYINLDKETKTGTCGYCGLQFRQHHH
UniProt O43920, whole entry, looked up: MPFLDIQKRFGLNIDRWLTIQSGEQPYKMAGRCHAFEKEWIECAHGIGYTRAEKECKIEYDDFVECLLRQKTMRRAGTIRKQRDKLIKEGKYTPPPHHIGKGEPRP
UniProt Q16718, whole entry, looked up: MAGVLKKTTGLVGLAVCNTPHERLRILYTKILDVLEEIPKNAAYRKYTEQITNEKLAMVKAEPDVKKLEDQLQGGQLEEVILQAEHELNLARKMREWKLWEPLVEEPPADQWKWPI
UniProt O43678, whole entry, looked up: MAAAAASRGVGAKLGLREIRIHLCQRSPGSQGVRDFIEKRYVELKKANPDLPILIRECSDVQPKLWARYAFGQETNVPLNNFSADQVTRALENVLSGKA
UniProt Q96PY6: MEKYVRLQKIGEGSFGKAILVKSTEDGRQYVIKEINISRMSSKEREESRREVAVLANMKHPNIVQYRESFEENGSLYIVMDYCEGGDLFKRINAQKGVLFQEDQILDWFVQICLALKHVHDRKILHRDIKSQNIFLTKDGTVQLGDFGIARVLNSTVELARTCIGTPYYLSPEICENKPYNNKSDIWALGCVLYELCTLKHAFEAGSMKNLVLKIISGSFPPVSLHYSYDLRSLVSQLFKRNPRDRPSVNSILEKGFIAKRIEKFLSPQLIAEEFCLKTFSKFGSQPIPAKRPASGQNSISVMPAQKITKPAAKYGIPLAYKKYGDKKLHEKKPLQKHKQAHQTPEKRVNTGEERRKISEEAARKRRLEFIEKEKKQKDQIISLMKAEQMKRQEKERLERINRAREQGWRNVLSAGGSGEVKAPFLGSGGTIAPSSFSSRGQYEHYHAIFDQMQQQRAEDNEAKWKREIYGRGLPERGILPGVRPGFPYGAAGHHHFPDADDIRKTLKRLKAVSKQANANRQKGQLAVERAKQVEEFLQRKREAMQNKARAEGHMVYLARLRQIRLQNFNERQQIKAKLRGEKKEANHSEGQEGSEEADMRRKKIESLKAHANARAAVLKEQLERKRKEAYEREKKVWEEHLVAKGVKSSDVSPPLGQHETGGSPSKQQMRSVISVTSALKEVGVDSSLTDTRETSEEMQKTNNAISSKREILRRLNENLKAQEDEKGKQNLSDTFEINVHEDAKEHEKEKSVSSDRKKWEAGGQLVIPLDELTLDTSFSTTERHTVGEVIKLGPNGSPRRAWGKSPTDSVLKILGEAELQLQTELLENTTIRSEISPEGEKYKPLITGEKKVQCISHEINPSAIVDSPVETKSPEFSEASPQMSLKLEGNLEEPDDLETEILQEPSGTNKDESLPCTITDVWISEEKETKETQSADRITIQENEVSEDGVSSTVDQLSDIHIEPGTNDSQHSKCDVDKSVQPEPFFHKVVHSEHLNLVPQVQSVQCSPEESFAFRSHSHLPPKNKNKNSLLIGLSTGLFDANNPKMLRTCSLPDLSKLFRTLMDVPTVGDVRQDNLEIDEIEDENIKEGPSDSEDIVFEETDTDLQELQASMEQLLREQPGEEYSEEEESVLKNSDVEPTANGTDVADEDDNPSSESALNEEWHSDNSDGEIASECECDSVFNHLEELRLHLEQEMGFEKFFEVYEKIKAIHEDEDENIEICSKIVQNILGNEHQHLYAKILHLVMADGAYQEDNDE
UniProt Q9P032: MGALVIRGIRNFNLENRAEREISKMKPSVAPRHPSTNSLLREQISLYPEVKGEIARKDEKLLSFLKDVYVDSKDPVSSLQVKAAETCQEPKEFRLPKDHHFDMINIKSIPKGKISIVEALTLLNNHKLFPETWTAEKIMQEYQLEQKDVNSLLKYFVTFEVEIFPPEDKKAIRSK
UniProt Q8NI08: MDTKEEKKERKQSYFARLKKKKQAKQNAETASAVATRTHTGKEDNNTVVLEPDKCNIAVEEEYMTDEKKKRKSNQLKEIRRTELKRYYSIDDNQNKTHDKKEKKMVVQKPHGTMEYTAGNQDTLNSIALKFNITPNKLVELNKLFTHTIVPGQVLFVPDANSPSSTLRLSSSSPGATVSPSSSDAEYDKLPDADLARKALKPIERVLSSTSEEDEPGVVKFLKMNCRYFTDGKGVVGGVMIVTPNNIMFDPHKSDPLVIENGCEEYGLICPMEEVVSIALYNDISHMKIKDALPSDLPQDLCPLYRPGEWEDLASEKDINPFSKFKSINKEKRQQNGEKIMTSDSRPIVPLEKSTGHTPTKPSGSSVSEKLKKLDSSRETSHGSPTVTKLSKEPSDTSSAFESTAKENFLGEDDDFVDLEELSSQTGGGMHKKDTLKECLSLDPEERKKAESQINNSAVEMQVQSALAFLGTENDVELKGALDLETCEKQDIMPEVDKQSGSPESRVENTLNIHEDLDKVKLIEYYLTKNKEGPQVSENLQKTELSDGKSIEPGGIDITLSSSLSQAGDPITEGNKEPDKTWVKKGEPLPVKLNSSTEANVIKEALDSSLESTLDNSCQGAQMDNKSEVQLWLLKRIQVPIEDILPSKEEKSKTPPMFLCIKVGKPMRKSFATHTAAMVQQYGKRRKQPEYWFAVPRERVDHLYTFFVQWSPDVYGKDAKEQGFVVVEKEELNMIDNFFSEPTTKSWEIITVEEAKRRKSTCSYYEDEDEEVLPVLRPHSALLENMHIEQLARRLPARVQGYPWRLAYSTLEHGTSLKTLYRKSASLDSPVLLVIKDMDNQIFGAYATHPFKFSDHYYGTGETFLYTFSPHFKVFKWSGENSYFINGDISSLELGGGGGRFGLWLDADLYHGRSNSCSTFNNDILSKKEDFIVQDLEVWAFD
UniProt Q9GZT8: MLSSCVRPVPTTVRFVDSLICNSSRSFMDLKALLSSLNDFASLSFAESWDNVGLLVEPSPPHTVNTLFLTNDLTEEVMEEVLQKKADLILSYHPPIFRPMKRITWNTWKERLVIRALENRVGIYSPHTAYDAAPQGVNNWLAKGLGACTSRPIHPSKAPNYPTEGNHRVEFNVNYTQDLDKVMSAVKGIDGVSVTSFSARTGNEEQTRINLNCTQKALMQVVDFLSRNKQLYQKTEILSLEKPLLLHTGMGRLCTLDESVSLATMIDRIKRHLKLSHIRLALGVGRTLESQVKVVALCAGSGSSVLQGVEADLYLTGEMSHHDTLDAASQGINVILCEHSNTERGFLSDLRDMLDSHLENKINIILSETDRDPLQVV

Compound in one test: Cc1cc(ccc1-c1ccccc1)C(=O)N1CCCN(CC1)C(=O)CCl [compound 10]
Nature of the test: probe-labelled cysteine peptide fold change vs DMSO (competition) (log2 fold change); higher = less target engagement (more negative = stronger competition). As to conditions: 10 µM; THP-1; incubation time: 4 h.
For “NDUFA8_P51970_110_FDECVLDK (UniProt P51970)”, the “probe-labelled cysteine peptide fold change” value is -0.333.

“NKTR_P30414_9_GAQDRPQCHFDIEINREPVGR (UniProt P30414)”: the “probe-labelled cysteine peptide fold change” value came out at 0.169.

As to “NDUFV1_P49821_187_NACGSGYDFDVFVVR (UniProt P49821)”, the “probe-labelled cysteine peptide fold change” value amounted to 0.074.

For “NEK6_Q9HC98_258_MNLFSLCQK (UniProt Q9HC98)”, the “probe-labelled cysteine peptide fold change” value came to 0.127.

For the target “NEK6_Q9HC98_157_YFVQLCSAVEHMHSR (UniProt Q9HC98)”, the “probe-labelled cysteine peptide fold change” value amounted to 0.0413.

With “NIT1_Q86X76_120_ECGLWLSLGGFHER (UniProt Q86X76)”, the “probe-labelled cysteine peptide fold change” value was 0.13.

Consider “NIPSNAP1_Q9BPW8_106_LHLDEDYPCSLVGNWNTWYGEQDQAVHLWR (UniProt Q9BPW8)”, for which the “probe-labelled cysteine peptide fold change” value is -0.0425.

Take “NFIC_P08651_104_KAPGCVLSNPDQK (UniProt P08651)”: the “probe-labelled cysteine peptide fold change” value was -0.162.

For “NIPBL_Q6KC79_1971_ACTQLVDNLVEHILK (UniProt Q6KC79)”, the “probe-labelled cysteine peptide fold change” value came out at 0.351.

In the case of “NDUFA10_O95299_67_VITVDGNICTGK (UniProt O95299)”, the “probe-labelled cysteine peptide fold change” value was 0.00064.

Regarding “NID1_P14543_1219_LYGITTALSQCPQGHNYCSVNNGGCTHLCLATPGSR (UniProt P14543)”, the “probe-labelled cysteine peptide fold change” value is -0.321.

Turning to “NDUFV2_P19404_135+140_YHIQVCTTTPCMLR (UniProt P19404)”, the “probe-labelled cysteine peptide fold change” value turned out to be 0.0889.

On to “NF1_P21359_1486_RFFLDIASDCPTSDAVNHSLSFISDGNVLALHR (UniProt P21359)”, for which the “probe-labelled cysteine peptide fold change” value stood at 0.0812.

As for “NISCH_Q9Y2I1_436_ASEVCLDDTVTTEK (UniProt Q9Y2I1)”, the “probe-labelled cysteine peptide fold change” value is 0.05.

With “NDUFS6_O75380_112_TGTCGYCGLQFR (UniProt O75380)”, the “probe-labelled cysteine peptide fold change” value is -0.219.

On to NCLN_Q969V3_84_RCVLMR (UniProt Q969V3), for which the “probe-labelled cysteine peptide fold change” value was -0.141.

As for “NDUFS5_O43920_43_EWIECAHGIGYTR (UniProt O43920)”, the “probe-labelled cysteine peptide fold change” value was -0.0931.

With “NHP2_Q9NX24_142_PHEEYQEAYDECLEEVQSLPLPL (UniProt Q9NX24)”, the “probe-labelled cysteine peptide fold change” value is 0.0526.

For the target “NEK9_Q8TD19_715_PIFGSLHHVPDLSCR (UniProt Q8TD19)”, the “probe-labelled cysteine peptide fold change” value stood at 0.0599.

For the target “NIPBL_Q6KC79_2151_SLFTVGALCR (UniProt Q6KC79)”, the “probe-labelled cysteine peptide fold change” value is 0.186.

Take “NIT2_Q9NQR4_170_GCQLLVYPGAFNLTTGPAHWELLQR (UniProt Q9NQR4)”: the “probe-labelled cysteine peptide fold change” value was found to be 0.0882.

For “NHP2_Q9NX24_92_GIMVLAGDTLPIEVYCHLPVMCEDR (UniProt Q9NX24)”, the “probe-labelled cysteine peptide fold change” value stood at 0.271.

“NDUFA5_Q16718_17_TTGLVGLAVCNTPHER (UniProt Q16718)”: the “probe-labelled cysteine peptide fold change” value is -0.174.

“NEU1_Q99519_218_LIVCGHGTLER (UniProt Q99519)”: the “probe-labelled cysteine peptide fold change” value worked out at 0.0515.

Consider “NDUFA2_O43678_24_IHLCQR (UniProt O43678)”, for which the “probe-labelled cysteine peptide fold change” value is -0.0204.

“NEK1_Q96PY6_276_FLSPQLIAEEFCLK (UniProt Q96PY6)”: the “probe-labelled cysteine peptide fold change” value is -0.0505.

With “NDUFAF4_Q9P032_87_AAETCQEPK (UniProt Q9P032)”, the “probe-labelled cysteine peptide fold change” value is -0.265.

For “NCOA7_Q8NI08_487_GALDLETCEK (UniProt Q8NI08)”, the “probe-labelled cysteine peptide fold change” value is -0.28.

For “NCOR1_O75376_474_SVPDCVLYYYLTK (UniProt O75376)”, the “probe-labelled cysteine peptide fold change” value was found to be 0.23.

On to “NCOR2_Q9Y618_466_TVAECVLYYYLTK (UniProt Q9Y618)”, for which the “probe-labelled cysteine peptide fold change” value amounted to 0.0485.

On to “NID1_P14543_679_EGSPDALQNPCYIGTHGCDTNAACRPGPR (UniProt P14543)”, for which the “probe-labelled cysteine peptide fold change” value was found to be 0.0439.

In the case of “NKTR_P30414_41_NFLCLCSGEK (UniProt P30414)”, the “probe-labelled cysteine peptide fold change” value is -0.102.

On to “NFS1_Q9Y697_353_HHYPGCINLSFAYVEGESLLMALK (UniProt Q9Y697)”, for which the “probe-labelled cysteine peptide fold change” value came out at 0.466.

With “NDUFA9_Q16795_86_CDKYDIMHLRPMGDLGQLLFLEWDAR (UniProt Q16795)”, the “probe-labelled cysteine peptide fold change” value was -0.11.

Regarding “NIF3L1_Q9GZT8_213_INLNCTQK (UniProt Q9GZT8)”, the “probe-labelled cysteine peptide fold change” value turned out to be 0.0939.

As for “NISCH_Q9Y2I1_185_TDLGHILDFTCR (UniProt Q9Y2I1)”, the “probe-labelled cysteine peptide fold change” value came to 0.0772.

On to “NDUFS1_P28331_226_MFMSELSGNIIDICPVGALTSK (UniProt P28331)”, for which the “probe-labelled cysteine peptide fold change” value is -0.183.

In the case of “NELFCD_Q8IXH7_293_ACQALGAMLSK (UniProt Q8IXH7)”, the “probe-labelled cysteine peptide fold change” value was determined as 0.0849.

For “NDUFA11_Q86Y39_18_QYWDIPDGTDCHRK (UniProt Q86Y39)”, the “probe-labelled cysteine peptide fold change” value is -0.216.

Still in this test, the particulars now being: 50 µM; THP-1; incubation time: 4 h.
With “NDUFA8_P51970_110_FDECVLDK (UniProt P51970)”, the “probe-labelled cysteine peptide fold change” value worked out at 0.173.

Regarding “NKTR_P30414_9_GAQDRPQCHFDIEINREPVGR (UniProt P30414)”, the “probe-labelled cysteine peptide fold change” value came out at 0.85.

Turning to “NDUFV1_P49821_187_NACGSGYDFDVFVVR (UniProt P49821)”, the “probe-labelled cysteine peptide fold change” value was 0.242.

For “NEK6_Q9HC98_258_MNLFSLCQK (UniProt Q9HC98)”, the “probe-labelled cysteine peptide fold change” value was -0.571.

Take “NEK6_Q9HC98_157_YFVQLCSAVEHMHSR (UniProt Q9HC98)”: the “probe-labelled cysteine peptide fold change” value is -0.112.

Take “NIT1_Q86X76_120_ECGLWLSLGGFHER (UniProt Q86X76)”: the “probe-labelled cysteine peptide fold change” value was found to be 0.14.

Turning to “NIPSNAP1_Q9BPW8_106_LHLDEDYPCSLVGNWNTWYGEQDQAVHLWR (UniProt Q9BPW8)”, the “probe-labelled cysteine peptide fold change” value came to 0.0951.

For the target “NFIC_P08651_104_KAPGCVLSNPDQK (UniProt P08651)”, the “probe-labelled cysteine peptide fold change” value is -0.158.

Regarding “NIPBL_Q6KC79_1971_ACTQLVDNLVEHILK (UniProt Q6KC79)”, the “probe-labelled cysteine peptide fold change” value was 0.433.

For the target “NDUFA10_O95299_67_VITVDGNICTGK (UniProt O95299)”, the “probe-labelled cysteine peptide fold change” value came out at 0.0884.

In the case of “NID1_P14543_1219_LYGITTALSQCPQGHNYCSVNNGGCTHLCLATPGSR (UniProt P14543)”, the “probe-labelled cysteine peptide fold change” value is -0.712.

For the target “NDUFV2_P19404_135+140_YHIQVCTTTPCMLR (UniProt P19404)”, the “probe-labelled cysteine peptide fold change” value is -0.157.

Take “NF1_P21359_1486_RFFLDIASDCPTSDAVNHSLSFISDGNVLALHR (UniProt P21359)”: the “probe-labelled cysteine peptide fold change” value was -0.305.

On to “NISCH_Q9Y2I1_436_ASEVCLDDTVTTEK (UniProt Q9Y2I1)”, for which the “probe-labelled cysteine peptide fold change” value is -0.322.

On to “NDUFS6_O75380_112_TGTCGYCGLQFR (UniProt O75380)”, for which the “probe-labelled cysteine peptide fold change” value is -0.308.

Take NCLN_Q969V3_84_RCVLMR (UniProt Q969V3): the “probe-labelled cysteine peptide fold change” value was 0.108.

As for “NDUFS5_O43920_43_EWIECAHGIGYTR (UniProt O43920)”, the “probe-labelled cysteine peptide fold change” value is 0.0363.

As for “NHP2_Q9NX24_142_PHEEYQEAYDECLEEVQSLPLPL (UniProt Q9NX24)”, the “probe-labelled cysteine peptide fold change” value was 0.242.

For “NEK9_Q8TD19_715_PIFGSLHHVPDLSCR (UniProt Q8TD19)”, the “probe-labelled cysteine peptide fold change” value was 0.133.

“NIPBL_Q6KC79_2151_SLFTVGALCR (UniProt Q6KC79)”: the “probe-labelled cysteine peptide fold change” value was -0.074.

Consider “NIT2_Q9NQR4_170_GCQLLVYPGAFNLTTGPAHWELLQR (UniProt Q9NQR4)”, for which the “probe-labelled cysteine peptide fold change” value was -0.0627.

For “NHP2_Q9NX24_92_GIMVLAGDTLPIEVYCHLPVMCEDR (UniProt Q9NX24)”, the “probe-labelled cysteine peptide fold change” value amounted to 0.265.

As to “NDUFA5_Q16718_17_TTGLVGLAVCNTPHER (UniProt Q16718)”, the “probe-labelled cysteine peptide fold change” value was -0.188.

For “NEU1_Q99519_218_LIVCGHGTLER (UniProt Q99519)”, the “probe-labelled cysteine peptide fold change” value is -0.0365.

In the case of “NDUFA2_O43678_24_IHLCQR (UniProt O43678)”, the “probe-labelled cysteine peptide fold change” value was -0.32.

Turning to “NEK1_Q96PY6_276_FLSPQLIAEEFCLK (UniProt Q96PY6)”, the “probe-labelled cysteine peptide fold change” value is -0.246.

With “NDUFAF4_Q9P032_87_AAETCQEPK (UniProt Q9P032)”, the “probe-labelled cysteine peptide fold change” value was -0.321.

“NCOA7_Q8NI08_487_GALDLETCEK (UniProt Q8NI08)”: the “probe-labelled cysteine peptide fold change” value was -0.107.

“NCOR1_O75376_474_SVPDCVLYYYLTK (UniProt O75376)”: the “probe-labelled cysteine peptide fold change” value was found to be 0.343.

With “NCOR2_Q9Y618_466_TVAECVLYYYLTK (UniProt Q9Y618)”, the “probe-labelled cysteine peptide fold change” value was determined as 0.294.

As to “NID1_P14543_679_EGSPDALQNPCYIGTHGCDTNAACRPGPR (UniProt P14543)”, the “probe-labelled cysteine peptide fold change” value stood at 0.00488.

With “NKTR_P30414_41_NFLCLCSGEK (UniProt P30414)”, the “probe-labelled cysteine peptide fold change” value was -0.279.

Consider “NFS1_Q9Y697_353_HHYPGCINLSFAYVEGESLLMALK (UniProt Q9Y697)”, for which the “probe-labelled cysteine peptide fold change” value was determined as 0.42.

With “NDUFA9_Q16795_86_CDKYDIMHLRPMGDLGQLLFLEWDAR (UniProt Q16795)”, the “probe-labelled cysteine peptide fold change” value was -0.494.

As to “NIF3L1_Q9GZT8_213_INLNCTQK (UniProt Q9GZT8)”, the “probe-labelled cysteine peptide fold change” value was -0.215.

For the target “NISCH_Q9Y2I1_185_TDLGHILDFTCR (UniProt Q9Y2I1)”, the “probe-labelled cysteine peptide fold change” value is 0.109.

As to “NDUFS1_P28331_226_MFMSELSGNIIDICPVGALTSK (UniProt P28331)”, the “probe-labelled cysteine peptide fold change” value was -0.0388.

Regarding “NELFCD_Q8IXH7_293_ACQALGAMLSK (UniProt Q8IXH7)”, the “probe-labelled cysteine peptide fold change” value is -0.0652.

For “NDUFA11_Q86Y39_18_QYWDIPDGTDCHRK (UniProt Q86Y39)”, the “probe-labelled cysteine peptide fold change” value was -0.195.

These data come from the supplement of paper PMC12067093, “Discovery and optimisation of a covalent ligand for TRIM25 and its application to targeted protein ubiquitination” (Chemical Science, 2025).
